The source of these data is the supplement of paper PMC10849652.

Amino acid sequences for entries named in this document (tags omitted). A change or cut given only in a name is not applied to a line headed by its entry.
UniProt O94832: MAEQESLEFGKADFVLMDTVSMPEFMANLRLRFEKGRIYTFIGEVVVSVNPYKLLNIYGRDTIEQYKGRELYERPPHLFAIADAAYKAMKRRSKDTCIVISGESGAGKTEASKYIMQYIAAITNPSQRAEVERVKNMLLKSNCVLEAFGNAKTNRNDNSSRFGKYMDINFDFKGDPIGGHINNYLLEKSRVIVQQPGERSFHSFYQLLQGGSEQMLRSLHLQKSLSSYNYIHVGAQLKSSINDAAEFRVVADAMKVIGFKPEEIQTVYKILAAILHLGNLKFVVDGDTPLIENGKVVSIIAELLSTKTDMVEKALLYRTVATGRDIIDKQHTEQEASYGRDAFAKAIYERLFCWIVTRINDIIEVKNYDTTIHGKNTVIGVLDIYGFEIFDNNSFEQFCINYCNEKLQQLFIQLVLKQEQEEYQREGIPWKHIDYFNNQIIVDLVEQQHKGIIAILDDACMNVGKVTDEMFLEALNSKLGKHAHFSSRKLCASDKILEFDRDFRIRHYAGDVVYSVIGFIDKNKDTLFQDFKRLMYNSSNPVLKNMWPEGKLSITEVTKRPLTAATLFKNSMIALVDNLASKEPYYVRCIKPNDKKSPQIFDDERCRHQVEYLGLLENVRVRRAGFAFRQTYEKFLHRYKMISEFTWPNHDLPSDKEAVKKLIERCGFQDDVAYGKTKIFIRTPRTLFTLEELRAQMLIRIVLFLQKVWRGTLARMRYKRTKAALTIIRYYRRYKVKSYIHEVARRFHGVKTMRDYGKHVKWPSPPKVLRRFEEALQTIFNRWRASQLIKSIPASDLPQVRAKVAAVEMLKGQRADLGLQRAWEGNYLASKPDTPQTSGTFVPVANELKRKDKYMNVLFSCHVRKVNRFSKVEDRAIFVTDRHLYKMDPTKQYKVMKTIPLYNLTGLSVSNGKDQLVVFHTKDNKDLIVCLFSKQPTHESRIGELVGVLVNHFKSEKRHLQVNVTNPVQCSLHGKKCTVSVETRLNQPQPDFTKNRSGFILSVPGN
UniProt P26038, whole entry, looked up: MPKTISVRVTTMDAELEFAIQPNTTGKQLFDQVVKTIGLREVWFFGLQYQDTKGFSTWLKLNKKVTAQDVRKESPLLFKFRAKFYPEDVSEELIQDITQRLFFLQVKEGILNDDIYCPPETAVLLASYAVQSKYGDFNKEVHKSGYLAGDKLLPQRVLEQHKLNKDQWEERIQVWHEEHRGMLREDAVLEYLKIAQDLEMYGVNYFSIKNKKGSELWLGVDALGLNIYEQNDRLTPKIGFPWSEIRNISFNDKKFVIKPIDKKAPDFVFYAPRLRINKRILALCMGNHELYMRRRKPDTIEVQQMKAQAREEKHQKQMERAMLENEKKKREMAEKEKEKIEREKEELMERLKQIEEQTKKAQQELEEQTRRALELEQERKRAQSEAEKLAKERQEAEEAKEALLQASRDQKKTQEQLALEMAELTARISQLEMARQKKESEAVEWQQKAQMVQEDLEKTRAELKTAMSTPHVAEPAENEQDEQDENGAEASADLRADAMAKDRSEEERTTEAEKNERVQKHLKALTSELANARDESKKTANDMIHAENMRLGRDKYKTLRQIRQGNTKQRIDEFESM
UniProt Q15800: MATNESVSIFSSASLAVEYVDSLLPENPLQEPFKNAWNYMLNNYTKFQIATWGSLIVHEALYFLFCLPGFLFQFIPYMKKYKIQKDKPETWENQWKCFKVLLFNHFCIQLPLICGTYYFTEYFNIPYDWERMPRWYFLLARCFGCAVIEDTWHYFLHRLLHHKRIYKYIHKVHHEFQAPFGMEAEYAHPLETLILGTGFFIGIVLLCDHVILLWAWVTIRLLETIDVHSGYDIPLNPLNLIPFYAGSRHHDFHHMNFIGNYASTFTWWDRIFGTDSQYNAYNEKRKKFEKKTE
UniProt Q9Y217: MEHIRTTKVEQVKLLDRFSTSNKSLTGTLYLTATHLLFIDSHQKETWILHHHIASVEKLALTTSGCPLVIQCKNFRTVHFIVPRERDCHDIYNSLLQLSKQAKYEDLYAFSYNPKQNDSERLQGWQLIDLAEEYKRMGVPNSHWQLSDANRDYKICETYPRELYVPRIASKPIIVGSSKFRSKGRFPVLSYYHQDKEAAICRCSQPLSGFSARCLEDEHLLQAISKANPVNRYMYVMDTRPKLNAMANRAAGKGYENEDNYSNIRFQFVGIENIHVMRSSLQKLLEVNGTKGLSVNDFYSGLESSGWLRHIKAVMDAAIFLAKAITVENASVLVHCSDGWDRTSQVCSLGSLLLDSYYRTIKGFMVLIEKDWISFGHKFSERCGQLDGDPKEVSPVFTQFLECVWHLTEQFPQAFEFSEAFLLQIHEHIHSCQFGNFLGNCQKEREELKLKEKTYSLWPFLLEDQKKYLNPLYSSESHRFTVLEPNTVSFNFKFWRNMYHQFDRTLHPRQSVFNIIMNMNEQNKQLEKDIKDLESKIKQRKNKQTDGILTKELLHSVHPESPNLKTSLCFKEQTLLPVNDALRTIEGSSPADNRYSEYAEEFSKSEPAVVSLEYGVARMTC
UniProt Q96DR8: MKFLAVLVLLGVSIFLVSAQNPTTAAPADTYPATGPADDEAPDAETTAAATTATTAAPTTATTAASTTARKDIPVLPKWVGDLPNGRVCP
UniProt P14649: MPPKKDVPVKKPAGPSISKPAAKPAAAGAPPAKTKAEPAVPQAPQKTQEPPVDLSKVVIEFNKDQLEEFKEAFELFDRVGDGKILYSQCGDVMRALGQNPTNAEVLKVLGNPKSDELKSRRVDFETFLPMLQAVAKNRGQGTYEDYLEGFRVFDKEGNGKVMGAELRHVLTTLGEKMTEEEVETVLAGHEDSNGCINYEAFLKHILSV
UniProt P82909: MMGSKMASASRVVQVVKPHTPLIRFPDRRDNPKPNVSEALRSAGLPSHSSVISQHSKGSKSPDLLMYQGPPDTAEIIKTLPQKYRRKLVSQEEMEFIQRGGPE
UniProt Q9UBK8: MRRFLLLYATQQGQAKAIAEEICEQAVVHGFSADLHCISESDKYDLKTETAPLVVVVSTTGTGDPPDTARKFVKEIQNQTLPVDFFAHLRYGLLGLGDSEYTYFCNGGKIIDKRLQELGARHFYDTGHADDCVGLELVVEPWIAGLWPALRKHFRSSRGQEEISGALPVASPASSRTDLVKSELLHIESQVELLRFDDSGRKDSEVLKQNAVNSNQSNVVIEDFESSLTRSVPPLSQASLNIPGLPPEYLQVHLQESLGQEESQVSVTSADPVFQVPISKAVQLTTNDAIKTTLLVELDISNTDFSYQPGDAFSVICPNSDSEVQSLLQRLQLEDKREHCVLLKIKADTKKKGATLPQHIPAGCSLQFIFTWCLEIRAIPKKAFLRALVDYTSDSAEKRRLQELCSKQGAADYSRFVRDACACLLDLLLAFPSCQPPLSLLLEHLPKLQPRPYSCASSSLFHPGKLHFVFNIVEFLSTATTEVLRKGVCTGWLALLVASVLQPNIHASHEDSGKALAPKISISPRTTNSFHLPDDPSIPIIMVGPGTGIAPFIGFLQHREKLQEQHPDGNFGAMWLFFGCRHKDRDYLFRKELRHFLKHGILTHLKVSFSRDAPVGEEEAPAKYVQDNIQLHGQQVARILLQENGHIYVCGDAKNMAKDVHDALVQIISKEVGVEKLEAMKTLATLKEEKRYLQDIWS
UniProt O75431: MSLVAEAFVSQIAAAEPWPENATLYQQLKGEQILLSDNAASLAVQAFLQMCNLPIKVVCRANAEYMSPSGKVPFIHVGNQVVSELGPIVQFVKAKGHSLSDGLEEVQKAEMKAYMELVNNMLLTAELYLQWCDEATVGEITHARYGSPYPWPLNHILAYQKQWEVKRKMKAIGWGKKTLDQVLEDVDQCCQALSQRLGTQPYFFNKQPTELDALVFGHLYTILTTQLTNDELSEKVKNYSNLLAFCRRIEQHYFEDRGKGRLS
UniProt Q96S97: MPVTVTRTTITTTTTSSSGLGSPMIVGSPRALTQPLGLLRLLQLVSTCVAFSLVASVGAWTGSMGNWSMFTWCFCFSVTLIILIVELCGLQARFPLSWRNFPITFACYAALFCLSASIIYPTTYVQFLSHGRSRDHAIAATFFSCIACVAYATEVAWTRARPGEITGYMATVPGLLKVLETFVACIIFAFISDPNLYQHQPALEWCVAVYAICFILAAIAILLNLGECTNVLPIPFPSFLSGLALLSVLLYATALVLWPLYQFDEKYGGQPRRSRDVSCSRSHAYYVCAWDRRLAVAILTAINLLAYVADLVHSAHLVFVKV
UniProt P35579, whole entry, looked up: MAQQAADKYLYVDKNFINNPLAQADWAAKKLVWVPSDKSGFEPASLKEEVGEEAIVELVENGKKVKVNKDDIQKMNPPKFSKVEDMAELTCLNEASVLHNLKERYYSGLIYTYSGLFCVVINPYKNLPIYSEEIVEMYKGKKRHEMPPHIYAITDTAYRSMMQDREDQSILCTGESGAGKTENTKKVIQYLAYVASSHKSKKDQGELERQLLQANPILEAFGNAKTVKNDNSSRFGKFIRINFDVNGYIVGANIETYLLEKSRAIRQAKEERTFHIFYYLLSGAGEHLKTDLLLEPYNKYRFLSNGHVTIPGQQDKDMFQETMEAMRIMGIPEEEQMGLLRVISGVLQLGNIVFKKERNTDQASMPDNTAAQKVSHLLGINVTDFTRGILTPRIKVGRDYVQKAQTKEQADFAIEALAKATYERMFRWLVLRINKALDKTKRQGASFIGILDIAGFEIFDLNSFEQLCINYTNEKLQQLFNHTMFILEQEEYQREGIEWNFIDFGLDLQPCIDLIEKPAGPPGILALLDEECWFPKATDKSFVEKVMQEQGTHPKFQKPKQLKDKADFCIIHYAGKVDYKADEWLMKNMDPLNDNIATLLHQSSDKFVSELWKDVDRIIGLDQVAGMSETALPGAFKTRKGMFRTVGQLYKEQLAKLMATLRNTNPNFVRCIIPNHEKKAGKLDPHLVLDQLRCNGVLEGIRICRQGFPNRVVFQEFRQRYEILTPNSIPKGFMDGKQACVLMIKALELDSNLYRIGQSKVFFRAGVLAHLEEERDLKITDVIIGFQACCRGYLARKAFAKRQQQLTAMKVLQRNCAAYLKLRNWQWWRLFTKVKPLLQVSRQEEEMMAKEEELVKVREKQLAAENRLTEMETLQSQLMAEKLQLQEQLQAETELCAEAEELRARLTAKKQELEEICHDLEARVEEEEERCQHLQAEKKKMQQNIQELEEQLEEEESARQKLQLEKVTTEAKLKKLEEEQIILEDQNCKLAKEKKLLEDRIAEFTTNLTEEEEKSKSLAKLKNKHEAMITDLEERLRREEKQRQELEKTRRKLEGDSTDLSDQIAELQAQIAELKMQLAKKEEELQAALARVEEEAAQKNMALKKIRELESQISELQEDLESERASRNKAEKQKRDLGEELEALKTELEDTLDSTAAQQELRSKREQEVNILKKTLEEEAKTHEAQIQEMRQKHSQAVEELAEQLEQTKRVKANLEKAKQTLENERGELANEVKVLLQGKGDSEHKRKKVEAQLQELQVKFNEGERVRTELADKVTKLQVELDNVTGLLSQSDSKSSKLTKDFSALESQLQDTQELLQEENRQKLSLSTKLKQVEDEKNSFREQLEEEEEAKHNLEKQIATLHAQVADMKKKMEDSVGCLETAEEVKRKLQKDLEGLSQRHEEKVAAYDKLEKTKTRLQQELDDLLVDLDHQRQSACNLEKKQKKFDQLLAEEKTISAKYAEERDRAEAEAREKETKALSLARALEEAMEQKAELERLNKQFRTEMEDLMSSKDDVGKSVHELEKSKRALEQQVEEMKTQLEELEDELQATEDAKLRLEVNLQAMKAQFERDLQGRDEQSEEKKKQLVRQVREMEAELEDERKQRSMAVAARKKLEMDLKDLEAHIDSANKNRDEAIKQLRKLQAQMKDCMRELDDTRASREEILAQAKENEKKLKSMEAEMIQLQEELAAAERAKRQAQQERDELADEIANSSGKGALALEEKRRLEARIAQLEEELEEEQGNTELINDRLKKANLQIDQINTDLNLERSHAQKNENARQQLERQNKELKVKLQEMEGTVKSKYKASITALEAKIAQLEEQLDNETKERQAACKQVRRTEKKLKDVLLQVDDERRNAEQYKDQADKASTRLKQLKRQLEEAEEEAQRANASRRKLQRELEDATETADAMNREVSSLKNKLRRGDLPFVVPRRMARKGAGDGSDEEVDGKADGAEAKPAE
UniProt Q9HD23: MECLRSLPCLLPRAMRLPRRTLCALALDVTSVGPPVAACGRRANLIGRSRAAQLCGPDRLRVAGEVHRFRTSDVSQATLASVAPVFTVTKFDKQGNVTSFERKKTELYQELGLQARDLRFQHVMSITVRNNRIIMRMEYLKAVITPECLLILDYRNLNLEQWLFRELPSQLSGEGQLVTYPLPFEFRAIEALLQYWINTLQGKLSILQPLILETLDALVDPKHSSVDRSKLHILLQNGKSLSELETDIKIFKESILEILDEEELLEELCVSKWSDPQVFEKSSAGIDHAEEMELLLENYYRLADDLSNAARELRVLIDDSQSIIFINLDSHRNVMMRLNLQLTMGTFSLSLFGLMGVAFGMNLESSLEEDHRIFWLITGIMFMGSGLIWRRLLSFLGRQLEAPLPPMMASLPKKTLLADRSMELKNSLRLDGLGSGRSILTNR

Some of the results follow.

Compound in one assay: Cc1nc(Nc2n[nH]c3c2CN(C(=O)N[C@H](CN(C)C)c2ccccc2)C3(C)C)c2sccc2n1
The assay is described as follows: log2 fold change, soluble protein after heating vs DMSO (PISA); higher = thermal stabilisation; K562 cells, 10 uM, 30 min; active = over 0.2 and 3.5 SD of the protein, either way, in both replicates (recomputed). A digest of the protocol:
(§1)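 Thermal stability values are relative to control samples and come from duplicates. They are expressed as log2 fold changes. For measurement, K562 cells (2×10^6 cells/mL) received 10 μM compound for 30 min, and aliquots were heated for 3 min over 48°C-58°C, pooled, and extracted at 4°C in PBS with 0.5% NP-40. Soluble protein, the supernatant after 21,000xg for 90 min, was quantified by TMTpro 16plex LC-MS/MS with equalised channel sums.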
As for MTCH1 (UniProt Q9NZJ7), the log2 fold change is inactive: 0.019.
With MTHFD2 (UniProt P13995), the log2 fold change is inactive: -0.011.
In the case of MT-CYB (UniProt P00156), the log2 fold change was inactive: -0.024.
Same read-out and setting: for MYH11 isoform 2 (UniProt P35749) the value was inactive: 0.014; for MT-ATP6 (UniProt P00846), inactive: 0.005; for MYO1D (UniProt O94832), inactive: -0.113.
Still for that read-out and setting: for MTHFD1, A0A384N5Y3 the value was inactive: -0.099.
MRRF (UniProt Q96E11): the log2 fold change is inactive: -0.035.
Still for that read-out and setting: for MTMR12 (UniProt Q9C0I1) the value was inactive: -0.015.
On the same count and under the same terms, for MSN (UniProt P26038) the value was inactive: 0.009.
In the case of MSMO1 (UniProt Q15800), the log2 fold change was inactive: -0.001.
Still for that read-out and setting: to MRPS10 (UniProt P82664) belongs inactive: 0.006; to MTMR6 (UniProt Q9Y217), inactive: 0.035.
Turning to MUCL1 (UniProt Q96DR8), the log2 fold change is inactive: 0.154.
On the same count and under the same terms, for MRPS2 (UniProt Q9Y399) the value was inactive: 0.019; for MRPS15 (UniProt P82914), inactive: 0.056; for MRPS27 isoform 2 (UniProt Q92552), inactive: 0.021.
For MSRB2 (UniProt Q9Y3D2), the log2 fold change is inactive: 0.023.
Take MYCBP (UniProt Q99417): the log2 fold change is inactive: 0.013.
Regarding MRPS11 (UniProt P82912), the log2 fold change was inactive: 0.179.
In the case of MRPS33 (UniProt Q9Y291), the log2 fold change is inactive: 0.064.
The same measure, in the same setting: to MRTFA (UniProt Q969V6) belongs inactive: -0.065; to MYL6B (UniProt P14649), inactive: -0.03.
The same measure, in the same setting: for MTM1 (UniProt Q13496) the value was inactive: 0.021; for MRPS36 (UniProt P82909), inactive: 0.038; for MTRR isoform 1 (UniProt Q9UBK8), inactive: 0.011.
MRPS24 (UniProt Q96EL2): the log2 fold change was inactive: 0.057.
MTPAP (UniProt Q9NVV4): the log2 fold change is inactive: 0.068.
Same read-out and setting: for MRPL9 (UniProt Q9BYD2) the value was inactive: 0.104; for MRPS30 (UniProt Q9NP92), inactive: 0.095; for MTMR14 (UniProt Q8NCE2), inactive: -0.04.
Still for that read-out and setting: to MTX2 (UniProt O75431) belongs inactive: 0.013; to MTA1 (UniProt Q13330), inactive: -0.064; to MYADM (UniProt Q96S97), inactive: -0.021.
On the same count and under the same terms, to MTOR (UniProt P42345) belongs inactive: 0.068; to MYO6 isoform 6 (UniProt Q9UM54), inactive: -0.018; to MYH9 (UniProt P35579), inactive: -0.001.
With MRPS18A isoform 2 (UniProt Q9NVS2), the log2 fold change was inactive: 0.084.
On the same count and under the same terms, to MRS2 (UniProt Q9HD23) belongs inactive: 0.021.

Compound in a further assay: Cc1nc(Nc2ncc(C(=O)Nc3c(C)cccc3Cl)s2)cc(N2CCN(CCO)CC2)n1 [dasatinib]
Described as above. The gist of the method:
as §1
Regarding MTCH1 (UniProt Q9NZJ7), the log2 fold change was inactive: 0.118.
As to MTHFD2 (UniProt P13995), the log2 fold change was inactive: -0.017.
The same measure, in the same setting: for MT-CYB (UniProt P00156) the value was inactive: 0.051; for MYH11 isoform 2 (UniProt P35749), inactive: -0.027; for MT-ATP6 (UniProt P00846), inactive: -0.101.
Same read-out and setting: for MYO1D (UniProt O94832) the value was inactive: 0.101; for MTHFD1, A0A384N5Y3, inactive: -0.153.
MRRF (UniProt Q96E11): the log2 fold change was inactive: -0.027.
Consider MTMR12 (UniProt Q9C0I1), for which the log2 fold change is inactive: -0.015.
On the same count and under the same terms, to MSN (UniProt P26038) belongs inactive: -0.019; to MSMO1 (UniProt Q15800), inactive: 0.023; to MRPS10 (UniProt P82664), inactive: -0.005.
For MTMR6 (UniProt Q9Y217), the log2 fold change was inactive: -0.138.
Same read-out and setting: for MUCL1 (UniProt Q96DR8) the value was inactive: 0.167; for MRPS2 (UniProt Q9Y399), inactive: -0.026.
Consider MRPS15 (UniProt P82914), for which the log2 fold change is inactive: -0.046.
On the same count and under the same terms, for MRPS27 isoform 2 (UniProt Q92552) the value was inactive: -0.104; for MSRB2 (UniProt Q9Y3D2), inactive: -0.056; for MYCBP (UniProt Q99417), inactive: 0.074.
Turning to MRPS11 (UniProt P82912), the log2 fold change is inactive: -0.16.
Still for that read-out and setting: for MRPS33 (UniProt Q9Y291) the value was inactive: 0.031; for MRTFA (UniProt Q969V6), inactive: -0.071.
For MYL6B (UniProt P14649), the log2 fold change was inactive: 0.008.
As to MTM1 (UniProt Q13496), the log2 fold change is inactive: -0.051.
In the case of MRPS36 (UniProt P82909), the log2 fold change was inactive: 0.
Regarding MTRR isoform 1 (UniProt Q9UBK8), the log2 fold change is inactive: -0.135.
Consider MRPS24 (UniProt Q96EL2), for which the log2 fold change was inactive: -0.024.
The same measure, in the same setting: for MTPAP (UniProt Q9NVV4) the value was inactive: -0.191; for MRPL9 (UniProt Q9BYD2), inactive: 0.006; for MRPS30 (UniProt Q9NP92), inactive: 0.015.
For MTMR14 (UniProt Q8NCE2), the log2 fold change was inactive: -0.063.
As to MTX2 (UniProt O75431), the log2 fold change was inactive: -0.043.
The same measure, in the same setting: for MTA1 (UniProt Q13330) the value was inactive: -0.085.
Same read-out and setting: to MYADM (UniProt Q96S97) belongs inactive: 0.022; to MTOR (UniProt P42345), inactive: -0.166; to MYO6 isoform 6 (UniProt Q9UM54), inactive: -0.01.
As to MYH9 (UniProt P35579), the log2 fold change is inactive: -0.05.
The same measure, in the same setting: for MRPS18A isoform 2 (UniProt Q9NVS2) the value was inactive: 0.029.
On to MRS2 (UniProt Q9HD23), for which the log2 fold change is inactive: 0.003.
